Assay results as given in US20150337013A1 (priority 2008, published 2015).

Experiment: general procedure: peptide synthesis; acid chloride; EDC/HOBT/DMAP
Conditions: lipidation step, TFA salt

**Q.** With “N-{1-[(E)-3-(4-pentylphenyl)but-2-enoyl]}-L-tryptophyl-D-asparaginyl-L-α-aspartyl-L-threonylglycyl-L-ornithyl-L-α-aspartyl-D-alanyl-L-α-aspartylglycyl-D-seryl-(3R)-3-methyl-L-α-glutamyl-(αS)-α,2-diamino-γ-oxobenzenebutanoic acid (13→4)-lactone” as the substance, how does the “final HPLC purity” value read?
**A.** 87.0%
